Measured data: PubChem BioAssay AID1259254 (NCATS, 2017)

- Purpose: 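Gene knock-downs that lead to re-replication, shown by excess G2 DNA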 (primary screen)
- Cell system: human HCT116 colorectal cancer cells
- Knock-down reagent: single siRNA against human genes
- Duration: 3 days
- Read-out: 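Nuclei stained with Hoechst and imaged; cell-cycle phase assigned by DNA content; G2 share scaled per plate, non-targeting siRNA 0%, GMNN siRNA 100%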
- Reading the numbers: G2 robust z-score and G2 cells, % of GMNN control: higher = more G2 cells, more excess DNA replication
- Call rule: 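Active siRNAs have a G2 robust z of 5 or more median absolute deviations over the median, which in these data means about 38% or higher of GMNN control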
The whole screen tested about 59,000 reagents; below is a part drawn at random. About 1,550 of all reagents (2.6%) were called active. 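G2 share is only a proxy for re-replication; each gene was hit by three separate siRNAs, and active genes were retested.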 Reagents against one gene are numbered here. Further read-outs or replicates are left out here. Not stated in the record: the amount of reagent.

target | reagent | G2 robust z-score | G2 cells, % of GMNN control | activity call
HMGB1P40 (GeneID 100506595) | 1 | 0.802 | 8.61 | inactive
HMGB1P40 (GeneID 100506595) | 2 | -0.592 | -1.19 | inactive
HMGB1P40 (GeneID 100506595) | 3 | -0.144 | 1.96 | inactive
SLITRK4 (GeneID 139065) | 1 | -0.279 | 1 | inactive
SLITRK4 (GeneID 139065) | 2 | -0.188 | 1.65 | inactive
SLITRK4 (GeneID 139065) | 3 | -0.658 | -1.66 | inactive
RDH12 (GeneID 145226) | 1 | 0.341 | 5.37 | inactive
RDH12 (GeneID 145226) | 2 | 2.11 | 17.8 | inactive
RDH12 (GeneID 145226) | 3 | 0.2 | 4.37 | inactive
XRCC3 (GeneID 7517) | 1 | -0.829 | -2.87 | inactive
XRCC3 (GeneID 7517) | 2 | -0.206 | 1.52 | inactive
XRCC3 (GeneID 7517) | 3 | -0.564 | -1 | inactive
XRCC3 (GeneID 7517) | 4 | -0.918 | -3.49 | inactive
XRCC3 (GeneID 7517) | 5 | -0.781 | -2.53 | inactive
XRCC3 (GeneID 7517) | 6 | -0.299 | 0.865 | inactive
MAML3 (GeneID 55534) | 1 | 5.74 | 43.4 | active
MAML3 (GeneID 55534) | 2 | -0.823 | -2.82 | inactive
MAML3 (GeneID 55534) | 3 | 1.35 | 12.4 | inactive
FLVCR2 (GeneID 55640) | 1 | 0.11 | 3.74 | inactive
FLVCR2 (GeneID 55640) | 2 | -0.616 | -1.36 | inactive
FLVCR2 (GeneID 55640) | 3 | -0.715 | -2.06 | inactive
SHMT1 (GeneID 6470) | 1 | 12 | 87.5 | active
SHMT1 (GeneID 6470) | 2 | 1.43 | 13 | inactive
SHMT1 (GeneID 6470) | 3 | -0.585 | -1.15 | inactive
CSN3 (GeneID 1448) | 1 | -0.435 | -0.0912 | inactive
CSN3 (GeneID 1448) | 2 | 1.11 | 10.8 | inactive
CSN3 (GeneID 1448) | 3 | 0.296 | 5.05 | inactive
TMEM179 (GeneID 388021) | 1 | 0.599 | 7.18 | inactive
TMEM179 (GeneID 388021) | 2 | -0.362 | 0.422 | inactive
TMEM179 (GeneID 388021) | 3 | -0.366 | 0.395 | inactive

Reformatted: results already given
| target | reagent | G2 robust z-score | G2 cells, % of GMNN control | activity call |
| --- | --- | --- | --- | --- |
| SLITRK4 (GeneID 139065) | 1 | -0.279 | 1 | inactive |
| SLITRK4 (GeneID 139065) | 2 | -0.188 | 1.65 | inactive |
| SLITRK4 (GeneID 139065) | 3 | -0.658 | -1.66 | inactive |
